Measured values as given in paper PMC7819943, “Rice protein-binding microarrays: a tool to detect cis-acting elements near promoter regions in rice”.
This is one part of the list.

Molecular target: T1, OsSMF1 (Oryza sativa, UniProt Q6ZLB0 1-436)
T1 sequence: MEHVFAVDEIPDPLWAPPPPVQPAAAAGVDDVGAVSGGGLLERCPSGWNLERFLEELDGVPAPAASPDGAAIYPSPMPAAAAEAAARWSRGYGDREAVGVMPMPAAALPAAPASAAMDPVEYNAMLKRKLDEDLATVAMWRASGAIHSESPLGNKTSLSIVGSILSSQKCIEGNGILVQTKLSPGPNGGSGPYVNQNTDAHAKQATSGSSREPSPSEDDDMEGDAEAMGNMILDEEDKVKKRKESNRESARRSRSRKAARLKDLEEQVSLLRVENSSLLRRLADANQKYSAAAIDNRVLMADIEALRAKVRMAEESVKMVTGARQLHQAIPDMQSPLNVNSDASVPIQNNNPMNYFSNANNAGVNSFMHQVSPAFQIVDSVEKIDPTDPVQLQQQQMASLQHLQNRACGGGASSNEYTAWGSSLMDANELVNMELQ
Assay: protein-binding microarray (RPBM); PBS, 2% BSA, 51.3 ng/ul salmon testes DNA, 50 uM zinc acetate, 200 nM TF, 25 C, 1 h; high values mean tight binding
Details: protein: recombinant; tags: N-terminal polyhistidine and DsRed monomer fusion (pET32a); chain copies: 2; label: CyDye5-dUTP incorporated in the synthesized complementary strand; 3' TTTTT single-stranded linker to array surface; dsDNA, one strand shown
Summary of the method: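 Binding signal is reported as fluorescence intensity per feature (arbitrary units) from an Axon 4000B scanner. Incubation used 200 nM of each Ni–NTA-purified, N-terminally polyhistidine- and DsRed-fused transcription factor from E. coli BL21-CodonPlus on a double-stranded custom Agilent array for 1 h at 25 °C, with 50 µM zinc acetate in the buffer, followed by washing.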

| Sequence | binding signal |
| --- | --- |
| CCTTCTCTCCACTTCCTTCGTGTTCGGCGTCATGTCCGACCGGAGTCACCTAGTGCAG | 3730 fluorescence intensity (a.u.) |
| TAATAATAAATGATGGGGCCCACGTGGACACCACCTATCACGGAGTCACCTAGTGCAG | 10600 fluorescence intensity (a.u.) |
| CTATAAACTTAGTTAAACTAAAGCTGCTATTTAACTTTGACGGAGTCACCTAGTGCAG | 3280 fluorescence intensity (a.u.) |
| TGCGCTGCAGGGAGATGTGCACACTGTAGCAGCGTCGTGCCGGAGTCACCTAGTGCAG | 30400 fluorescence intensity (a.u.) |
| AGTCATTTACTTTAACCTCCACCAGTCACCGGCCCAGCCACGGAGTCACCTAGTGCAG | 3240 fluorescence intensity (a.u.) |
| GTAATTCGAAACCATGTCATTATAATTTTGCAAAGTTTGACGGAGTCACCTAGTGCAG | 4350 fluorescence intensity (a.u.) |
| GAGAGAATCCGCTGTGTGTCACTGAATTTATTCATATTCTCGGAGTCACCTAGTGCAG | 3540 fluorescence intensity (a.u.) |
| TCAATGAATACAAACAGTGACGGAGGCAAAATCCTAGGCGCGGAGTCACCTAGTGCAG | 3890 fluorescence intensity (a.u.) |
| GTATATTGGTCTGATTCTGTTGCAGAGGATGCCACCTGGGCGGAGTCACCTAGTGCAG | 4800 fluorescence intensity (a.u.) |
| CACATCTGAGCCGTCCATCTGTCACCCCAGCTAAGCGAACCGGAGTCACCTAGTGCAG | 4020 fluorescence intensity (a.u.) |
| CTCGATTAGCTGTCAACGCTGTTTGGGCCGGCGAGCTCCACGGAGTCACCTAGTGCAG | 4770 fluorescence intensity (a.u.) |
| TTCTTGGCCGGAAGACACGCCGGCGCGACGGCATCATCCACGGAGTCACCTAGTGCAG | 23300 fluorescence intensity (a.u.) |
| ACGATTAATTGTTTAGTAAGCGTGCTGACGTTAAACGAGACGGAGTCACCTAGTGCAG | 3690 fluorescence intensity (a.u.) |
| TGCGGCGTGGCGTCGCCGTGGCGCCTAGGCTGCCTTCTCCCGGAGTCACCTAGTGCAG | 3470 fluorescence intensity (a.u.) |
| CTTGGGGAAGGCGGCGGGTGTCGGGGAGGGCGAGGGTATCCGGAGTCACCTAGTGCAG | 3400 fluorescence intensity (a.u.) |
| AATGGTCCTCCACTGCTAAATCCAACTGTAAATCTGTCAGCGGAGTCACCTAGTGCAG | 3330 fluorescence intensity (a.u.) |
| CCACCGGCCCGCATCACCAGAAGCCTGTCCTAAATGCACGCGGAGTCACCTAGTGCAG | 3620 fluorescence intensity (a.u.) |
| CCTACGCCCACCTCGTCTCCGATGACGGCGGCGTCCTCGTCGGAGTCACCTAGTGCAG | 3910 fluorescence intensity (a.u.) |
| GCTGAAGTGCATTTTCTCTTTTAACTGAATATACAGGTGTCGGAGTCACCTAGTGCAG | 24500 fluorescence intensity (a.u.) |
| ACATATATATGGACTTATCTTTTCTACAACAAATCTATACCGGAGTCACCTAGTGCAG | 32100 fluorescence intensity (a.u.) |
| CTGGGTGGATGGGGATCACACGTAAGTGATGCTCTGAGGACGGAGTCACCTAGTGCAG | 3700 fluorescence intensity (a.u.) |
| GCCAAATGCCACATTGTGGCTAATTTTGCTAAGTTGGACGCGGAGTCACCTAGTGCAG | 37400 fluorescence intensity (a.u.) |
| CAGTTACGACTAGTCGTAAATACGTCATTCATTAACTGTTCGGAGTCACCTAGTGCAG | 3210 fluorescence intensity (a.u.) |
| CAATGAACAAATTGTTCGCTTGTACATGTGTTTGATTTTGCGGAGTCACCTAGTGCAG | 3510 fluorescence intensity (a.u.) |
| GTCTCCATTGCTGACATGGCACACTAATTAGGGAGATAATCGGAGTCACCTAGTGCAG | 6860 fluorescence intensity (a.u.) |
| TCAACTGGGAGGCAAATATCTTCATCGTGTTCGTCATTTTCGGAGTCACCTAGTGCAG | 3960 fluorescence intensity (a.u.) |
| GGCGGCGGGTGGAGGGACGCCCGCTGAATCCGCCACCGGTCGGAGTCACCTAGTGCAG | 3170 fluorescence intensity (a.u.) |

| Sequence | binding signal |
| --- | --- |
| GTCCTCGTCTCCACGCTACCGTTTCGCAACCACCCGCTTCCGGAGTCACCTAGTGCAG | 5260 fluorescence intensity (a.u.) |
| GGGTAGAGCAGAAGGAGCTTAGTAAAGAGTTCTTTTGCCGCGGAGTCACCTAGTGCAG | 3360 fluorescence intensity (a.u.) |
| GTCCCCGTCCGGCCCACGCTACATATGGTACAAACTGAGGCGGAGTCACCTAGTGCAG | 3780 fluorescence intensity (a.u.) |
| ATTGTGTAGTTCATCTTGCGGAAACAACACAGTACGTGGTCGGAGTCACCTAGTGCAG | 3830 fluorescence intensity (a.u.) |
| TCGTGCATACACGTCAGGACTCCGGACATGAACCCACCACCGGAGTCACCTAGTGCAG | 9750 fluorescence intensity (a.u.) |
| CTGGGCACTGGACCCCACCTGTCAATGGCACTGCCCTTCACGGAGTCACCTAGTGCAG | 34000 fluorescence intensity (a.u.) |
| CTTTTAGATGTGGCAATTAACTATTTGCCACTGGACCACCCGGAGTCACCTAGTGCAG | 3740 fluorescence intensity (a.u.) |
| TTTCGCGGGCGTGACAGCACGGCTCGAAGTCACTTTCCCCCGGAGTCACCTAGTGCAG | 3980 fluorescence intensity (a.u.) |
| TGCCTCTCGCATGCGAAGCGAGCGCTCTACCATATGAGCTCGGAGTCACCTAGTGCAG | 21000 fluorescence intensity (a.u.) |
| CCTATGCACTGATACGTGACAGCGGTGCACGTCGGCACAGCGGAGTCACCTAGTGCAG | 5120 fluorescence intensity (a.u.) |
| TGATATCTGGATGCCCGTCATCACCGCCTCTGCCGATGAACGGAGTCACCTAGTGCAG | 3190 fluorescence intensity (a.u.) |
| GTAGGTTCAGTACACGTCCCCTTACCGTGATGAGGCGCCTCGGAGTCACCTAGTGCAG | 5160 fluorescence intensity (a.u.) |
| AATTAATATGAACTGCACATACATCACTGTGCTCATATTTCGGAGTCACCTAGTGCAG | 34600 fluorescence intensity (a.u.) |
| GTCAAGAAACCATTTCGGTTACATCACACAACACAGCCTCCGGAGTCACCTAGTGCAG | 3160 fluorescence intensity (a.u.) |
| GCGCCGCCACCCTCCACTACTACGAATCGCCAGCCGCCACCGGAGTCACCTAGTGCAG | 3210 fluorescence intensity (a.u.) |
| GCCAGTGTGCCGCTCTACGAGGGAATCCCCGAGCTGAGCACGGAGTCACCTAGTGCAG | 3650 fluorescence intensity (a.u.) |
| TTCTTGCTCCATTTACTTTAACAAGTTTTGGTGAACTTAACGGAGTCACCTAGTGCAG | 34200 fluorescence intensity (a.u.) |
| TTAGCTTAGTTTCCAGTGGTTGGTGACTGTAACAAAATGTCGGAGTCACCTAGTGCAG | 5180 fluorescence intensity (a.u.) |
| TCGCCAACTCGCGCCCAATCCCGGCTTGACACGTCACCCCCGGAGTCACCTAGTGCAG | 42000 fluorescence intensity (a.u.) |
| ATTCAATTTCAAGCTGTGCACTAATGCATCTATCTTAAGCCGGAGTCACCTAGTGCAG | 17000 fluorescence intensity (a.u.) |
| GTGTCGAGCCCAACACCGAGTGACGCACGCTCATCGCGGTCGGAGTCACCTAGTGCAG | 5480 fluorescence intensity (a.u.) |
| AACCCGGCCACGTCTAATTTATTTGTAAGCCGCCACCCTCCGGAGTCACCTAGTGCAG | 3500 fluorescence intensity (a.u.) |
| GTTGGTACGTGTGCTTGCGTTTGCGTTGCGGTGCAGCGCACGGAGTCACCTAGTGCAG | 3440 fluorescence intensity (a.u.) |
| GTCTAGCTAGTGCAATTAGAGTAACCTATATATCACACAACGGAGTCACCTAGTGCAG | 52200 fluorescence intensity (a.u.) |
| ACTTACACGTGGCCCCGAGATGACTTCCGGACCCACCTGTCGGAGTCACCTAGTGCAG | 7910 fluorescence intensity (a.u.) |
| GTTGAGGGTGCAAAACAAAAGGCACTGATATTATAATGTACGGAGTCACCTAGTGCAG | 38500 fluorescence intensity (a.u.) |
| GTCACCGCTACGAAGTGGCGCCCCGTGCGTCAGTTCCCCACGGAGTCACCTAGTGCAG | 3810 fluorescence intensity (a.u.) |

3 entries from above, as labelled records:
TGATATCTGGATGCCCGTCATCACCGCCTCTGCCGATGAACGGAGTCACCTAGTGCAG
  binding signal: 3190 fluorescence intensity (a.u.)
GTAGGTTCAGTACACGTCCCCTTACCGTGATGAGGCGCCTCGGAGTCACCTAGTGCAG
  binding signal: 5160 fluorescence intensity (a.u.)
AATTAATATGAACTGCACATACATCACTGTGCTCATATTTCGGAGTCACCTAGTGCAG
  binding signal: 34600 fluorescence intensity (a.u.)
